Data published in article PMC10017463.
Results are given in words; binding and its absence hold for the method and conditions named. In cells and extracts the contact can be indirect. Binding calls can cover weak binding; strength is not graded here.

Target: T1, VE-cadherin (human (endogenous in HUVEC)) (UniProt P33151)
T1 sequence: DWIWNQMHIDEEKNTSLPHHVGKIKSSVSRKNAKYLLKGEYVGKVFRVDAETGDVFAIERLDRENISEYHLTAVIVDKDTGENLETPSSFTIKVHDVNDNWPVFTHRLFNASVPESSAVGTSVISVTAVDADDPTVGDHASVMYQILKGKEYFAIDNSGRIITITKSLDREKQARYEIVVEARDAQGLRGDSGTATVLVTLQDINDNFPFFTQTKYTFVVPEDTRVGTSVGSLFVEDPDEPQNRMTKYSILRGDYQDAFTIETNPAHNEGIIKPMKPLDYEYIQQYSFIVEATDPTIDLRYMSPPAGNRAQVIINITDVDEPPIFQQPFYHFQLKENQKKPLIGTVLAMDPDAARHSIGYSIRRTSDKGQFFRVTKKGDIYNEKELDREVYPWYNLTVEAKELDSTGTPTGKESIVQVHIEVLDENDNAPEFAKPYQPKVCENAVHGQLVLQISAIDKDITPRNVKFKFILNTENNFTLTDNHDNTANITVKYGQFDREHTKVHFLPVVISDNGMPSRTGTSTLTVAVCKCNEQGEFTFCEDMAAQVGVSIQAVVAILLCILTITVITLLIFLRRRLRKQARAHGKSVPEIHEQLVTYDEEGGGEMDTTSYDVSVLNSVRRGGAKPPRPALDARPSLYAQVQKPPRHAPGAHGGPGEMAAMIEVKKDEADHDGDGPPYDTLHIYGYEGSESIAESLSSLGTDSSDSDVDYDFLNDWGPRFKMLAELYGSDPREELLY
Assay: co-IP; VE-cadherin precipitated from HUVEC cell lysates (shScramble, shPRKD1 stable knockdown lines, or cells treated with the PRKD inhibitor CRT0066101, 5 µM); coprecipitated partners detected by Western blot

For Vinculin (from UniProt P18206-2), the binding was “binds”.
